Some compounds share one wording; it may come from a single statement.
System: mice
Experiment: SmartCube behavioral signature similarity analysis
Format: in vivo, mouse
Conditions: for Discrimination rate vs Clozapine (1.0 mg/kg) / Discrimination rate vs Olanzapine (0.25 mg/kg) / Discrimination rate vs Risperidone (0.06 mg/kg): SmartCube, rate of 0.70 or lower = similar; for SmartCube behavioral signature, similarity to drug class (in words): i.p.
Text: In addition to the reversal of L-687,414 induced hyperlocomotion experiment as described above, some compounds of the present invention have been tested in SmartCube®, an automated system in which the behaviors of compound-treated mice in response to multiple challenges are captured by digital video and analyzed with computer algorithms (Roberds et al., Frontiers in Neuroscience, 2011, Vol. 5, Art. 103, 1-4; Vadim Alexandrov, Dani Brunner, Taleen Hanania, Emer Leahy Eur. J. Pharmacol. 2015, 750, 82-99). In this way, the neuro-pharmacological effects of a test compound can be predicted by similarity to major classes of compounds, such as antipsychotics, anxiolytics and antidepressants.
SmartCube® was used to compare the behavioral signature of a test compound to a database of behavioral signatures obtained from a large set of clinically approved reference drugs, grouped per indications. In this way, the neuro-pharmacological effects of a test compound can be predicted by similarity to major classes of compounds, such as antipsychotics, anxiolytics and antidepressants. This approach is ideally suited to screen collections of existing drugs or drug candidates with previously unknown neuropharmacology, which could expedite the development of new and unexpected treatments for psychiatric disorders.
Some compounds of the present invention were injected i.p. at different doses 15 minutes before the test. At least 8 mice were used in each treatment group. Digital videos of the subjects were processed with computer vision algorithms to extract over 2000 dependent measures including frequency and duration of many different behavioral states. The results of the classifications are presented as bar charts for each compound and dose (mg/kg), the Y-axis indicates the relative probability that the test compound will show efficacy in the specific CNS indication.
Compounds of the present invention show similar signatures to those of atypical antipsychotics. An independent analysis was performed on the unclassified data to determine the similarity of the example compounds to active doses of known atypical antipsychotics. For this analysis, we use discrimination rate as the measure of separability between the two drugs, i.e. one drug's “distinguishability” from another. A rate equal to 50% (or 0.5) corresponds to zero distinguishability. […] In most cases, the example compounds show a similarity to risperidone, clozapine and olanzapine with a discrimination rate of 0.70.

SMILES	Discrimination rate vs Clozapine (1.0 mg/kg) (test compound 3 mg/kg i.p.)	Discrimination rate vs Olanzapine (0.25 mg/kg) (test compound 3 mg/kg i.p.)	Discrimination rate vs Risperidone (0.06 mg/kg) (test compound 3 mg/kg i.p.)	SmartCube behavioral signature, similarity to drug class (in words)	Discrimination rate vs Clozapine (1.0 mg/kg) (test compound 5 mg/kg i.p.)	Discrimination rate vs Olanzapine (0.25 mg/kg) (test compound 5 mg/kg i.p.)	Discrimination rate vs Risperidone (0.06 mg/kg) (test compound 5 mg/kg i.p.)
CNC(=O)c1cncc(N2C(=O)C(C)(C)c3ccc(-c4cnc(C)nc4)cc32)n1 [Example 2, 6-(3,3-Dimethyl-6-(2-methylpyrimidin-5-yl)-2-oxoindolin-1-yl)-N-methylpyrazine-2-carboxamide]	0.54	0.51	0.63	similarity to atypical antipsychotics	–	–	–
COCCNC(=O)c1cncc(N2C(=O)C(C)(C)c3ccc(-c4cnc(C)nc4)cc32)n1 [Example 7, 6-(3,3-Dimethyl-6-(2-methylpyrimidin-5-yl)-2-oxoindolin-1-yl)-N-(2-methoxyethyl)pyrazine-2-carboxamide]	0.57	0.61	0.59	similarity to atypical antipsychotics	–	–	–
Cc1ncc(-c2ccc3c(c2)N(c2cnc(C(=O)N(C)C)cn2)C(=O)C3(C)C)cn1 [Example 11, 5-[3,3-Dimethyl-6-(2-methylpyrimidin-5-yl)-2-oxoindol-1-yl]-dimethylpyrazine-2-carboxamide]	0.57	0.57	0.64	similarity to atypical antipsychotics	–	–	–
CNC(=O)c1ccnc(N2C(=O)C(C)(C)c3ccc(-c4cnc(C)nc4)cc32)n1 [Example 16, 2-(3,3-Dimethyl-6-(2-methylpyrimidin-5-yl)-2-oxoindolin-1-yl)-N-methylpyrimidine-4-carboxamide]	0.56	0.54	0.52	similarity to atypical antipsychotics	–	–	–
Cc1ncc(-c2ccc3c(c2)N(c2cccc(C(=O)NC4CC4)n2)C(=O)C3(C)C)cn1 [Example 24, N-Cyclopropyl-6-(3,3-dimethyl-6-(2-methylpyrimidin-5-yl)-2-oxoindolin-1-yl)picolinamide]	0.61	0.69	0.65	similarity to atypical antipsychotics	–	–	–
Cc1ncc(-c2ccc3c(c2)N(c2ccc(C(=O)N(C)C)cn2)C(=O)C3(C)C)cn1 [Example 29, 6-(3,3-Dimethyl-6-(2-methylpyrimidin-5-yl)-2-oxoindolin-1-yl)-N,N-dimethylnicotinamide]	–	–	–	similarity to atypical antipsychotics	0.60	0.67	0.63

Source: patent US11066393B2, “Indolin-2-one derivatives” (Hoffmann-La Roche Inc., priority 2015, dated 2021)
